# No constants are given. Whether binding was seen depends on the method and setting. In cells and extracts the contact can be indirect. A yes stands for co-enrichment or nearness to the bait. Other partners may have been found. Tags and fused reporters may be left off the sequences shown.
# Protein sequences, listed by entry. Tags and fused reporters are not part of them.
# UniProt P98175: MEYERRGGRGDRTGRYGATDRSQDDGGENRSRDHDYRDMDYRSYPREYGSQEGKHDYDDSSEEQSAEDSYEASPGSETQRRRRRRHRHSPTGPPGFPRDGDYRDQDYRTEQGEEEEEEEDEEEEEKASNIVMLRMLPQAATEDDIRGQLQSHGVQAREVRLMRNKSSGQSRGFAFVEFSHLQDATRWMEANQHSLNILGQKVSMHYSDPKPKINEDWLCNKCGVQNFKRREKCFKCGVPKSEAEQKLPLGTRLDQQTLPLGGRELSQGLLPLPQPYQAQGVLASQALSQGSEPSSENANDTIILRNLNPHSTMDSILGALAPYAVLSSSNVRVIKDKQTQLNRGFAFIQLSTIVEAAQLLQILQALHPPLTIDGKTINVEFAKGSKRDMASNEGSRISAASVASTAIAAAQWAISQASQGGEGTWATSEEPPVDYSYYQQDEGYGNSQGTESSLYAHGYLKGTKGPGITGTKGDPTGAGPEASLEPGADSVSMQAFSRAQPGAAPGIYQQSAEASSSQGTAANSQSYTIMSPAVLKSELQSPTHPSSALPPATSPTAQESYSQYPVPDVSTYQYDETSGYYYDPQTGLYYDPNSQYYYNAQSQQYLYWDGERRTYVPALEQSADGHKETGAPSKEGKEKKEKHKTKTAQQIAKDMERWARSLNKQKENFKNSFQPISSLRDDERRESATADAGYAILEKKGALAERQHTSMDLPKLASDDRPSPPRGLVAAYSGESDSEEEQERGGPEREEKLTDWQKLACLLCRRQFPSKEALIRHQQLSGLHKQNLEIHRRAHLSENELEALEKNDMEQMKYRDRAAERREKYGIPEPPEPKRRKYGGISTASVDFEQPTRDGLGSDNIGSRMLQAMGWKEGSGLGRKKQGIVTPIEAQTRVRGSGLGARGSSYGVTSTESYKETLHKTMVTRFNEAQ
# B1: SRSF4 (protein, UniProt Q08170 1-494)
# chain: MPRVYIGRLSYQARERDVERFFKGYGKILEVDLKNGYGFVEFDDLRDADDAVYELNGKDLCGERVIVEHARGPRRDGSYGSGRSGYGYRRSGRDKYGPPTRTEYRLIVENLSSRCSWQDLKDYMRQAGEVTYADAHKGRKNEGVIEFVSYSDMKRALEKLDGTEVNGRKIRLVEDKPGSRRRRSYSRSRSHSRSRSRSRHSRKSRSRSGSSKSSHSKSRSRSRSGSRSRSKSRSRSQSRSRSKKEKSRSPSKEKSRSRSHSAGKSRSKSKDQAEEKIQNNDNVGKPKSRSPSRHKSKSKSRSRSQERRVEEEKRGSVSRGRSQEKSLRQSRSRSRSKGGSRSRSRSRSKSKDKRKGRKRSREESRSRSRSRSKSERSRKRGSKRDSKAGSSKKKKKEDTDRSQSRSPSRSVSKEREHAKSESSQREGRGESENAGTNQETRSRSRSNSKSKPNLPSESRSRSKSASKTRSRSKSRSRSASRSPSRSRSRSHSRS
# B2: SRSF8 (protein, UniProt Q9BRL6 1-282)
# chain: MSCGRPPPDVDGMITLKVDNLTYRTSPDSLRRVFEKYGRVGDVYIPREPHTKAPRGFAFVRFHDRRDAQDAEAAMDGAELDGRELRVQVARYGRRDLPRSRQGEPRGRSRGGGYGRRSRSYGRRSRSPRRRHRSRSRGPSCSRSRSRSRYRGSRYSRSPYSRSPYSRSRYSRSPYSRSRYRESRYGGSHYSSSGYSNSRYSRYHSSRSHSKSGSSTSSRSASTSKSSSARRSKSSSVSRSRSRSRSSSMTRSPPRVSKRKSKSRSRSKRPPKSPEEEGQMSS
# Molecular target: T1, MP60, 60-amino-acid micropeptide encoded by LINC01138 (ENST00000614292), Flag knock-in (human (endogenous in 293T))
# T1 sequence: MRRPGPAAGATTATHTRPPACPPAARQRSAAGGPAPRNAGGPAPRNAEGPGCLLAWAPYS
# Test: affinity purification with mass spectrometry; anti-Flag antibody co-immunoprecipitation from lysates of 293T-Flag-KI cells, LC-MS/MS of the precipitated complex
row,Molecule,binding
1,RNA-binding motif protein 10 (RBM10) (from UniProt P98175 1-930),binds
2,B1,binds
3,B2,binds
